Results reported in patent US20250340655A1, “EPHA2-TARGETING ANTIBODIES AND THEIR APPLICATIONS IN CANCER TREATMENT” (TAIPEI MEDICAL UNIVERSITY, priority 2022, published 2025).
No constants are given. Whether binding was seen depends on the method and setting. Some entries that bind do so weakly or less than the wild type.

Amino acid sequences for entries named in this document (tags omitted). Residues count along the entry.
UniProt P29317, residues 24-976: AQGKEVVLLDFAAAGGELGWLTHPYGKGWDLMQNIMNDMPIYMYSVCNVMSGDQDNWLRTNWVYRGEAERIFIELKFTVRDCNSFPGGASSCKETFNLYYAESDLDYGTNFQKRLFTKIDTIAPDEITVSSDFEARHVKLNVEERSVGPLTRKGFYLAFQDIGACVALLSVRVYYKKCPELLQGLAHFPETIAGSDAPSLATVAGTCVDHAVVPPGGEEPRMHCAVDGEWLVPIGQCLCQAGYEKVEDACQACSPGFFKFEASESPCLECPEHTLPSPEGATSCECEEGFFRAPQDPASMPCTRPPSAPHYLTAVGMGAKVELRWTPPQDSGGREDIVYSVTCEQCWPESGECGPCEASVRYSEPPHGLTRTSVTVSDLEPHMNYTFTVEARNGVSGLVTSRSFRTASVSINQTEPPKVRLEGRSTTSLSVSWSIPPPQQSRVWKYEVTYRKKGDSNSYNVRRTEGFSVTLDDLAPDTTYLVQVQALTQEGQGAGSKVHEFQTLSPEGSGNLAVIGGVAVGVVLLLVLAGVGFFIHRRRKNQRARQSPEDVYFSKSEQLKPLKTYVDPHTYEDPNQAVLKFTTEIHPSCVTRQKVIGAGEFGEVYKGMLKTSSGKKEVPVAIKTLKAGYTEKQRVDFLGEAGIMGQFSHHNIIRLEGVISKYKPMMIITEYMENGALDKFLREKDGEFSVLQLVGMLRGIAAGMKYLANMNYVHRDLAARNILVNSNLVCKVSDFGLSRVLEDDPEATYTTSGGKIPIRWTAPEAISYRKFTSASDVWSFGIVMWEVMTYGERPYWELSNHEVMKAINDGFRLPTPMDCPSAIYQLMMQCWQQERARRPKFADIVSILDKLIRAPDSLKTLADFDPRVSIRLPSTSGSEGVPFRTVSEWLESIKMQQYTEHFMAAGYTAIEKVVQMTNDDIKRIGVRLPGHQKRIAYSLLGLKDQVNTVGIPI

Key:
[1] = molecular target: EphA2 overexpressed on 293T cells (UniProt P29317); experiment: flow cytometry on 293T cells overexpressing EphA1-A8
[2] = molecular target: EphA2 overexpressed on 293T cells (UniProt P29317); experiment: flow cytometry on 293T cells overexpressing EphA1-A8 (FIG. 6A, told again)

binding [1]: binds | binding [2]: binds
B1: Humanized scFv hSD5 (scFv)
scFv: LTQPPSVSVSPGQTVRITCSGSSGSYGWYQQKSPGQAPVTLIYDNDKRPSGIPERFSGSSSGSTSTLTISGVQAEDEADYYCGSADSSTYVGMFGGGTKLTVLGQSSRSSQVQLVESGGGLVQPGGSLRLSCAASGFTFSDYGMGWVRQAPGKGLEWVAGISAAGSFTPYGAAVKGRFTISRDNSKNTVYLQMNSLRAEDTAVYYCARIPSGYRAGEIYTWGQGTLVTVSS
notes: also called hSD5 scFv; Humanized scFv hSDS
